# The other results are listed elsewhere or left out.
# Columns and labels:
# Experiment in all cases: glycan array binding signal (z-score within array); higher = stronger binding
# Details in all cases: glycan notation: IUPAC condensed, linker removed
# [1] = molecular target: Fuc(a1-3)[Gal3S(b1-4)]GlcNAc
# Procedure, shortened: (§1)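 Negative Z-scores can be read as non-binding. The Z-score is calculated within each array and then averaged across arrays of one protein sequence at different concentrations or buffers and across linkers. Arrays, 3228 in all, were curated from the Consortium for Functional Glycomics database and kept only where the protein sequence was available.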
# [2] = molecular target: Fuc(a1-3)[Gal3S(b1-4)]GlcNAc6S
# Procedure, shortened: as §1
# [3] = molecular target: Fuc(a1-3)[GalNAc(b1-4)]GlcNAc
# Procedure, shortened: as §1
# [4] = molecular target: Fuc(a1-4)GlcNAc
# Procedure, shortened: as §1
# [5] = molecular target: Fuc(b1-3)GlcNAc
# Procedure, shortened: as §1
# [6] = molecular target: Gal(a1-2)Gal
# Procedure, shortened: as §1
# [7] = molecular target: Gal(a1-3)Gal
# Procedure, shortened: as §1
# [8] = molecular target: Gal(a1-3)Gal(b1-3)GlcNAc
# Procedure, shortened: as §1
# [9] = molecular target: Gal(a1-3)Gal(b1-3)GlcNAc(b1-2)Man(a1-3)[Gal(a1-3)Gal(b1-3)GlcNAc(b1-2)Man(a1-6)]Man(b1-4)GlcNAc(b1-4)GlcNAc
# Procedure, shortened: as §1
# [10] = molecular target: Gal(a1-3)Gal(b1-3)[Fuc(a1-4)]GlcNAc(b1-2)Man(a1-3)[Gal(a1-3)Gal(b1-3)[Fuc(a1-4)]GlcNAc(b1-2)Man(a1-6)]Man(b1-4)GlcNAc(b1-4)GlcNAc
# Procedure, shortened: as §1
# [11] = molecular target: Gal(a1-3)Gal(b1-4)Glc
# Procedure, shortened: as §1
# [12] = molecular target: Gal(a1-3)Gal(b1-4)GlcNAc
# Procedure, shortened: as §1
# [13] = molecular target: Gal(a1-3)Gal(b1-4)GlcNAc(b1-3)GalNAc
# Procedure, shortened: as §1
# [14] = molecular target: Gal(a1-3)Gal(b1-4)[Fuc(a1-3)]GlcNAc
# Procedure, shortened: as §1
# [15] = molecular target: Gal(a1-3)Gal(b1-4)[Fuc(a1-3)]GlcNAc(b1-2)Man(a1-3)[Gal(a1-3)Gal(b1-4)[Fuc(a1-3)]GlcNAc(b1-2)Man(a1-6)]Man(b1-4)GlcNAc(b1-4)GlcNAc
# Procedure, shortened: as §1
# [16] = molecular target: Gal(a1-3)GalNAc
# Procedure, shortened: as §1
# [17] = molecular target: Gal(a1-3)[Gal(a1-4)]Gal(b1-4)GlcNAc
# Procedure, shortened: as §1
# [18] = molecular target: Gal(a1-4)Gal(b1-3)GlcNAc(b1-2)Man(a1-3)[Gal(a1-4)Gal(b1-3)GlcNAc(b1-2)Man(a1-6)]Man(b1-4)GlcNAc(b1-4)GlcNAc
# Procedure, shortened: as §1
# [19] = molecular target: Gal(a1-4)Gal(b1-4)Glc
# Procedure, shortened: as §1
# [20] = molecular target: Gal(a1-4)Gal(b1-4)GlcNAc
# Procedure, shortened: as §1
# [21] = molecular target: Gal(a1-4)Gal(b1-4)GlcNAc(b1-2)Man(a1-3)[Gal(a1-4)Gal(b1-4)GlcNAc(b1-2)Man(a1-6)]Man(b1-4)GlcNAc(b1-4)GlcNAc
# Procedure, shortened: as §1
# [22] = molecular target: Gal(a1-4)Gal(b1-4)GlcNAc(b1-3)Gal(b1-4)Glc
# Procedure, shortened: as §1
# [23] = molecular target: Gal(a1-4)GlcNAc
# Procedure, shortened: as §1
# [24] = molecular target: Gal(a1-6)Glc
# Procedure, shortened: as §1
# [25] = molecular target: Gal(b1-2)Gal
# Procedure, shortened: as §1
# [26] = molecular target: Gal(b1-3)Gal
# Procedure, shortened: as §1
# [27] = molecular target: Gal(b1-3)Gal(b1-4)GlcNAc
# Procedure, shortened: as §1
# [28] = molecular target: Gal(b1-3)Gal(b1-4)GlcNAc(b1-2)Man(a1-3)[Gal(b1-3)Gal(b1-4)GlcNAc(b1-2)Man(a1-6)]Man(b1-4)GlcNAc(b1-4)GlcNAc
# Procedure, shortened: as §1
# [29] = molecular target: Gal(b1-3)GalNAc
# Procedure, shortened: as §1
# [30] = molecular target: Gal(b1-3)GalNAc(a1-3)[Fuc(a1-2)]Gal(b1-4)Glc
# Procedure, shortened: as §1
# [31] = molecular target: Gal(b1-3)GalNAc(a1-3)[Fuc(a1-2)]Gal(b1-4)GlcNAc
# Procedure, shortened: as §1
# [32] = molecular target: Gal(b1-3)GalNAc(b1-3)Gal(a1-4)Gal(b1-4)Glc
# Procedure, shortened: as §1
# [33] = molecular target: Gal(b1-3)GalNAc(b1-4)Gal(b1-4)Glc
# Procedure, shortened: as §1
# [34] = molecular target: Gal(b1-3)GalNAc(b1-4)[Neu5Ac(a2-3)]Gal(b1-4)Glc
# Procedure, shortened: as §1
# [35] = molecular target: Gal(b1-3)GlcNAc
# Procedure, shortened: as §1
# [36] = molecular target: Gal(b1-3)GlcNAc(a1-6)Gal(b1-4)GlcNAc
# Procedure, shortened: as §1
# [37] = molecular target: Gal(b1-3)GlcNAc(b1-2)Man(a1-3)[Gal(b1-3)GlcNAc(b1-2)Man(a1-6)]Man(b1-4)GlcNAc(b1-4)GlcNAc
# Procedure, shortened: as §1
# [38] = molecular target: Gal(b1-3)GlcNAc(b1-2)Man(a1-3)[Gal(b1-3)GlcNAc(b1-2)Man(a1-6)]Man(b1-4)GlcNAc(b1-4)[Fuc(a1-6)]GlcNAc
# Procedure, shortened: as §1
# [39] = molecular target: Gal(b1-3)GlcNAc(b1-3)Gal(b1-3)GlcNAc
# Procedure, shortened: as §1
# [40] = molecular target: Gal(b1-3)GlcNAc(b1-3)Gal(b1-4)Glc
# Procedure, shortened: as §1
# [41] = molecular target: Gal(b1-3)GlcNAc(b1-3)Gal(b1-4)GlcNAc
# Procedure, shortened: as §1
# [42] = molecular target: Gal(b1-3)GlcNAc(b1-3)Gal(b1-4)GlcNAc(b1-6)[Gal(b1-3)GlcNAc(b1-3)]Gal(b1-4)Glc
# Procedure, shortened: as §1
# [43] = molecular target: Gal(b1-3)GlcNAc(b1-3)Gal(b1-4)[Fuc(a1-3)]GlcNAc(b1-6)[Gal(b1-3)GlcNAc(b1-3)]Gal(b1-4)Glc
# Procedure, shortened: as §1
# [44] = molecular target: Gal(b1-3)GlcNAc(b1-3)GalNAc
# Procedure, shortened: as §1
# [45] = molecular target: Gal(b1-3)GlcNAc(b1-6)Gal(b1-4)GlcNAc
# Procedure, shortened: as §1
# [46] = molecular target: Gal(b1-3)[Fuc(a1-4)]GlcNAc
# Procedure, shortened: as §1
# [47] = molecular target: Gal(b1-3)[Fuc(a1-4)]GlcNAc(b1-2)Man(a1-3)[Gal(b1-3)[Fuc(a1-4)]GlcNAc(b1-2)Man(a1-6)]Man(b1-4)GlcNAc(b1-4)GlcNAc
# Procedure, shortened: as §1
# [48] = molecular target: Gal(b1-3)[Fuc(a1-4)]GlcNAc(b1-2)Man(a1-3)[Gal(b1-3)[Fuc(a1-4)]GlcNAc(b1-2)Man(a1-6)]Man(b1-4)GlcNAc(b1-4)[Fuc(a1-6)]GlcNAc
# Procedure, shortened: as §1
# [49] = molecular target: Gal(b1-3)[Fuc(a1-4)]GlcNAc(b1-3)Gal(b1-3)[Fuc(a1-4)]GlcNAc
# Procedure, shortened: as §1
# [50] = molecular target: Gal(b1-3)[Fuc(a1-4)]GlcNAc(b1-3)Gal(b1-4)GlcNAc
# Procedure, shortened: as §1
# [51] = molecular target: Gal(b1-3)[Fuc(a1-4)]GlcNAc(b1-3)Gal(b1-4)[Fuc(a1-3)]GlcNAc
# Procedure, shortened: as §1
# [52] = molecular target: Gal(b1-3)[GlcNAc(b1-6)]GalNAc
# Procedure, shortened: as §1
# [53] = molecular target: Gal(b1-3)[Neu5Ac(a2-6)]GalNAc
# Procedure, shortened: as §1
# [54] = molecular target: Gal(b1-3)[Neu5Ac(a2-6)]GlcNAc(b1-6)Gal(b1-4)Glc
# Procedure, shortened: as §1
# [55] = molecular target: Gal(b1-3)[Neu5Ac(b2-6)]GalNAc
# Procedure, shortened: as §1
# [56] = molecular target: Gal(b1-4)GalNAc(a1-3)[Fuc(a1-2)]Gal(b1-4)GlcNAc
# Procedure, shortened: as §1
# [57] = molecular target: Gal(b1-4)GalNAc(b1-3)[Fuc(a1-2)]Gal(b1-4)GlcNAc
# Procedure, shortened: as §1
# [58] = molecular target: Gal(b1-4)Glc
# Procedure, shortened: as §1
# [59] = molecular target: Gal(b1-4)Glc6S
# Procedure, shortened: as §1
# [60] = molecular target: Gal(b1-4)GlcNAc
# Procedure, shortened: as §1
binder,measurement,setting,value
"SAG1 (Toxoplasma gondii), P13664 (protein) MSVSLHHFIISSGFLTSMFPKAVRRAVTAGVFAAPTLMSFLRCGVMASDPPLVANQVVTCPDKKSTAAVILTPTENHFTLKCPKTALTEPPTLAYSPNRQICPAGTTSSCTSKAVTLSSLIPEAEDSWWTGDSASLDTAGIKLTVPIEKFPVTTQTFVVGCIKGDDAQSCMVTVTVQARASSVVNNVARCSYGADSTLGPVKLSAEGPTTMTLVCGKDGVKVPQDNNQYCSGTTLTGCNEKSFKDILPKLTENPWQGNASSDKGATLTIKKEAFPAESKSVIIGCTGGSPEKHHCTVKLEFAGAAGSAKSAAGTASHVSIFAMVIGLIGSIAACVA",glycan array binding signal (z-score),[1],0.411
same,glycan array binding signal (z-score),[2],0.72
same,glycan array binding signal (z-score),[3],-0.106
same,glycan array binding signal (z-score),[4],-0.422
same,glycan array binding signal (z-score),[5],-0.214
same,glycan array binding signal (z-score),[6],0.341
same,glycan array binding signal (z-score),[7],0.672
same,glycan array binding signal (z-score),[8],-0.386
same,glycan array binding signal (z-score),[9],1.47
same,glycan array binding signal (z-score),[10],0.606
same,glycan array binding signal (z-score),[11],-0.363
same,glycan array binding signal (z-score),[12],0.902
same,glycan array binding signal (z-score),[13],-0.788
same,glycan array binding signal (z-score),[14],0.109
same,glycan array binding signal (z-score),[15],0.398
same,glycan array binding signal (z-score),[16],0.134
same,glycan array binding signal (z-score),[17],0.866
same,glycan array binding signal (z-score),[18],-0.287
same,glycan array binding signal (z-score),[19],-0.44
same,glycan array binding signal (z-score),[20],-0.579
same,glycan array binding signal (z-score),[21],0.75
same,glycan array binding signal (z-score),[22],0.422
same,glycan array binding signal (z-score),[23],-0.563
same,glycan array binding signal (z-score),[24],-0.501
same,glycan array binding signal (z-score),[25],-0.017
same,glycan array binding signal (z-score),[26],0.334
same,glycan array binding signal (z-score),[27],-0.036
same,glycan array binding signal (z-score),[28],-0.238
same,glycan array binding signal (z-score),[29],0.077
same,glycan array binding signal (z-score),[30],0.13
same,glycan array binding signal (z-score),[31],-1.13
same,glycan array binding signal (z-score),[32],-0.158
same,glycan array binding signal (z-score),[33],0.028
same,glycan array binding signal (z-score),[34],0.625
same,glycan array binding signal (z-score),[35],-0.355
same,glycan array binding signal (z-score),[36],-0.323
same,glycan array binding signal (z-score),[37],-0.17
same,glycan array binding signal (z-score),[38],0.157
same,glycan array binding signal (z-score),[39],-0.522
same,glycan array binding signal (z-score),[40],-0.116
same,glycan array binding signal (z-score),[41],0.549
same,glycan array binding signal (z-score),[42],0.175
same,glycan array binding signal (z-score),[43],-0.6
same,glycan array binding signal (z-score),[44],1.25
same,glycan array binding signal (z-score),[45],0.082
same,glycan array binding signal (z-score),[46],0.214
same,glycan array binding signal (z-score),[47],0.446
same,glycan array binding signal (z-score),[48],0.212
same,glycan array binding signal (z-score),[49],-0.32
same,glycan array binding signal (z-score),[50],0.149
same,glycan array binding signal (z-score),[51],-0.276
same,glycan array binding signal (z-score),[52],-0.229
same,glycan array binding signal (z-score),[53],-0.742
same,glycan array binding signal (z-score),[54],-0.806
same,glycan array binding signal (z-score),[55],-0.025
same,glycan array binding signal (z-score),[56],-0.299
same,glycan array binding signal (z-score),[57],0.035
same,glycan array binding signal (z-score),[58],-0.239
same,glycan array binding signal (z-score),[59],-0.242
same,glycan array binding signal (z-score),[60],-0.622

# Pulled one by one from the entries so far:
binder,measurement,setting,value
"SAG1 (Toxoplasma gondii), P13664 (protein) MSVSLHHFIISSGFLTSMFPKAVRRAVTAGVFAAPTLMSFLRCGVMASDPPLVANQVVTCPDKKSTAAVILTPTENHFTLKCPKTALTEPPTLAYSPNRQICPAGTTSSCTSKAVTLSSLIPEAEDSWWTGDSASLDTAGIKLTVPIEKFPVTTQTFVVGCIKGDDAQSCMVTVTVQARASSVVNNVARCSYGADSTLGPVKLSAEGPTTMTLVCGKDGVKVPQDNNQYCSGTTLTGCNEKSFKDILPKLTENPWQGNASSDKGATLTIKKEAFPAESKSVIIGCTGGSPEKHHCTVKLEFAGAAGSAKSAAGTASHVSIFAMVIGLIGSIAACVA",glycan array binding signal (z-score),[45],0.082
same,glycan array binding signal (z-score),[32],-0.158
same,glycan array binding signal (z-score),[9],1.47
same,glycan array binding signal (z-score),[19],-0.44
